# Laboratory results as given in PubChem BioAssay AID662 (National Center for Advancing Translational Sciences (NCATS), 2007).
# Some of the results follow. Shown are side measurements of this screen, not its main read-out; they come without a call. Compounds called inactive in the main read-out are mostly missing here. Words in brackets tell the shape of the fitted curve; partial curves, single points and poor fits give uncertain potencies.
# Assay: Cell signaling CRE-BLA (Fsk stim)
# Settings: CHO CRE-bla reporter (cAMP response element driving beta-lactamase), forskolin EC10, beta-lactamase ratio; measured here: 460 nm blue channel
# Method in brief: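 Beta-lactamase reporter under a cAMP responsive element in CHO cells; compounds tested in titration series against EC10 NKH 477, 3 h at 37 °C. Read-out: CCF4 FRET ratio 460nm/530nm (excitation 405nm) giving %Activity, fitted to AC50.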
row,Compound,AC50
1,COCCCn1c(CCC(=O)O)ccc1-c1cccs1,"12.6 µM [rising, single point]"
2,C[C@H]1C[C@@H]2[C@H]3CCC4=CC(=O)C=C[C@@]4(C)[C@@]3(Cl)[C@@H](O)C[C@]2(C)[C@]1(OC(=O)c1ccco1)C(=O)CCl,"3.16 µM [rising, full curve, poor fit]"
3,CN(C)c1ncc2nc(-c3cccc(C#N)c3)c(=O)n(C)c2n1,"15.8 µM [rising, partial curve]"
4,C/C(Cl)=C\Cn1c(Nc2ccccc2)nc2c1c(=O)n(C)c(=O)n2C,"10 µM [rising, single point]"
5,CCCCN(CCCNC(=O)CN1C(=O)COc2ccccc21)c1ccccc1,"0.0126 µM [rising, full curve, poor fit]"
6,Cn1c(/N=C/c2cc(Cl)ccc2O)nc2ccccc21,"31.6 µM [falling, single point]"
7,CCc1nnc(NC(=O)CCC(=O)N2CCN(Cc3cc(F)ccc3OC)CC2)s1,"25.1 µM [rising, single point]"
8,CCCn1c(C)cc(=O)c2cc(NC(=O)c3ccccn3)ccc21,"6.31 µM [rising, partial curve]"
9,Cc1nn(C)c(C)c1S(=O)(=O)Nc1ccc2c(c1)OCO2,"5.01 µM [falling, partial curve]"
10,CCOc1ccc(-c2nnc(-c3ccco3)o2)cc1OCC,"10 µM [rising, partial curve]"
11,CCc1nc(Nc2ccc(N3CCN(C(C)=O)CC3)cc2)c2oc3ccccc3c2n1,"1.26 µM [rising, partial curve]"
12,CN1CCN(c2nc(-c3ccc4c(c3)OCO4)nc3ccccc23)CC1,"12.6 µM [rising, partial curve]"
13,COC(=O)c1ccc(CSc2nc3c(c(=O)n2-c2ccc(F)cc2)SCC3)o1,"10 µM [rising, partial curve]"
14,COc1ccc(OC)c(C2/C(=C(\O)c3c(C)nc4ccccn34)C(=O)C(=O)N2CCCN(C)C)c1 (stereo unspecified),"3.16 µM [rising, single point]"
15,COc1ccc2cc1Oc1ccc(cc1)C[C@@H]1c3c(cc(OC)c4c3Oc3cc5c(cc3O4)CCN[C@H]5C2)CCN1C,"0.631 µM [rising, full curve, poor fit]"
16,O=C(c1nc(-c2ccccc2)n(-c2ccccc2)n1)N1CCN(S(=O)(=O)c2ccccc2)CC1,"0.316 µM [falling, partial curve]"
17,CCn1cc(C(=O)NCc2cccs2)c(=O)c2cc(S(=O)(=O)N3CCOCC3)ccc21,"15.8 µM [rising, single point]"
18,COc1ccc(CCN2CC(O)=C(c3nc4ccccc4c(=O)[nH]3)C2=N)cc1OC,"2.51 µM [rising, single point]"
19,CN(CCO)c1ncnc2nc[nH]c12,"10 µM [rising, partial curve]"
20,O=C(C1=C(O)C(=O)N(Cc2ccccc2)C1c1cccnc1)c1ccco1 (stereo unspecified),"2.51 µM [falling, partial curve]"
21,Cc1oc(-c2cccc(Cl)c2)nc1CN1CCC(C(=O)NCc2cccnc2)CC1,"10 µM [falling, partial curve]"
22,Fc1ccc(N2CCN(C(c3cccs3)c3nnnn3CCc3ccccc3)CC2)cc1 (stereo unspecified),"10 µM [falling, single point]"

# An excerpt of these results, as tab-separated lines:
row	Compound	AC50
8	CCCn1c(C)cc(=O)c2cc(NC(=O)c3ccccn3)ccc21	6.31 µM [rising, partial curve]
9	Cc1nn(C)c(C)c1S(=O)(=O)Nc1ccc2c(c1)OCO2	5.01 µM [falling, partial curve]
10	CCOc1ccc(-c2nnc(-c3ccco3)o2)cc1OCC	10 µM [rising, partial curve]
11	CCc1nc(Nc2ccc(N3CCN(C(C)=O)CC3)cc2)c2oc3ccccc3c2n1	1.26 µM [rising, partial curve]
12	CN1CCN(c2nc(-c3ccc4c(c3)OCO4)nc3ccccc23)CC1	12.6 µM [rising, partial curve]
13	COC(=O)c1ccc(CSc2nc3c(c(=O)n2-c2ccc(F)cc2)SCC3)o1	10 µM [rising, partial curve]
14	COc1ccc(OC)c(C2/C(=C(\O)c3c(C)nc4ccccn34)C(=O)C(=O)N2CCCN(C)C)c1 (stereo unspecified)	3.16 µM [rising, single point]
15	COc1ccc2cc1Oc1ccc(cc1)C[C@@H]1c3c(cc(OC)c4c3Oc3cc5c(cc3O4)CCN[C@H]5C2)CCN1C	0.631 µM [rising, full curve, poor fit]
16	O=C(c1nc(-c2ccccc2)n(-c2ccccc2)n1)N1CCN(S(=O)(=O)c2ccccc2)CC1	0.316 µM [falling, partial curve]
17	CCn1cc(C(=O)NCc2cccs2)c(=O)c2cc(S(=O)(=O)N3CCOCC3)ccc21	15.8 µM [rising, single point]
18	COc1ccc(CCN2CC(O)=C(c3nc4ccccc4c(=O)[nH]3)C2=N)cc1OC	2.51 µM [rising, single point]
19	CN(CCO)c1ncnc2nc[nH]c12	10 µM [rising, partial curve]

# Later entries

row,Compound,AC50
1,O=C(NC1=NCCS1)c1ccc(OCC2CCCO2)cc1 (stereo unspecified),"0.00398 µM [falling, full curve, poor fit]"
2,COc1ccc(-c2nnc(Nc3nc4c(OC)cccc4s3)o2)cc1,"12.6 µM [rising, partial curve]"
3,CN(c1ccccc1)c1nc(-n2ccnc2)nc(-n2ccnc2)n1,"10 µM [rising, partial curve]"
4,CCC(=O)c1cc(-c2nc3ccccc3n2C)n(C)c1,"10 µM [rising, partial curve]"
5,CN1CCN(c2ncc3nc(-c4ccccc4)c(=O)n(CCC#N)c3n2)CC1,"3.98 µM [rising, full curve]"
6,COc1ccc(-c2c3c(nc4sc(C(=O)Nc5cc(C)on5)c(N)c24)CCC3)cc1,"5.01 µM [rising, partial curve]"
7,CC1Cc2ccccc2N1C(=O)Cn1c(=O)oc2cc(S(=O)(=O)N3CCCCC3)ccc21 (stereo unspecified),"10 µM [falling, single point]"
8,CSc1nc(N)nc(SC2C=CCCC2)c1C#N (stereo unspecified),"10 µM [rising, partial curve]"
9,COc1ccc2cc(C(c3nnnn3C3CCCC3)N3CCc4ccccc4C3)c(=O)[nH]c2c1 (stereo unspecified),"12.6 µM [rising, single point]"
10,COc1cccc(-c2cc(C(=O)N3CCN(c4ncccn4)CC3)c3ccccc3n2)c1,"25.1 µM [falling, single point]"
11,Cc1cc(C)n2nc(SCc3cc(=O)n4ccccc4n3)nc2n1,"3.16 µM [rising, full curve]"
12,COc1cc(-c2cc(=O)c3ccccc3o2)ccc1O,"1.58 µM [rising, full curve]"
13,Clc1ccc(OCc2nc(-c3ccccn3)n[nH]2)cc1,"0.0501 µM [falling, full curve, poor fit]"
14,O=C(Oc1ccc(-c2nc(-c3ccccn3)no2)cc1)c1ccccc1,"0.00398 µM [falling, full curve, poor fit]"
15,CCOc1cccc(C(=O)Nc2cccc(-c3nc4ncccc4o3)c2C)c1,"1.58 µM [rising, single point]"
16,Cc1cccc2cc(C#N)c(SCCN3CCCCC3)nc12,"12.6 µM [rising, single point]"
17,CC(C)C1Cc2[nH]c(=O)c(C(=O)O)cc2CO1 (stereo unspecified),"15.8 µM [falling, partial curve, poor fit]"
18,CC1CCCCC1NS(=O)(=O)c1ccc(S(=O)(=O)N2CCN(CCC#N)CC2)cc1 (stereo unspecified),"12.6 µM [rising, partial curve]"
19,COc1ccc(C2N=C(Nc3ccc(C)cc3)Nc3nc(C)cc(=O)n32)cc1 (stereo unspecified),"31.6 µM [falling, single point]"
20,CCOc1ccc(-n2c(C)nc3c(cnn3-c3ccc(Cl)cc3)c2=O)cc1,"0.0631 µM [rising, full curve]"
21,CN(C)c1ncc2nc(CCc3ccccc3)c(=O)n(-c3ccccc3)c2n1,"10 µM [rising, partial curve]"
22,COc1ccc(Nc2nc(CC(C)=O)ns2)cc1OC,"10 µM [rising, partial curve]"

row,Compound,AC50
1,CCCCCn1c(SCC#N)nc2cc(C(=O)NC3CCCCC3)ccc2c1=O,"0.251 µM [falling, full curve]"
2,COc1cccc(Cn2c(=O)c(C)nc3cnc(Oc4cccc(Cl)c4)nc32)c1,"7.94 µM [rising, partial curve]"
3,CC(=O)C1=C(O)C(=O)N(CCc2c[nH]c3ccccc23)C1c1cccc(O)c1 (stereo unspecified),"10 µM [falling, partial curve]"
4,COc1cc(-c2nnc(-c3cccs3)o2)cc(OC)c1OC,"2.51 µM [rising, full curve, poor fit]"
5,COc1ccc(CCn2c(N)c(S(=O)(=O)c3cccs3)c3nc4ccccc4nc32)cc1OC,"5.01 µM [falling, single point]"
6,COc1ccc(-n2c(=O)c(C)nc3cnc(N4CCNCC4)nc32)cc1,"12.6 µM [rising, partial curve]"
7,COc1ccc(N2CCN(C(=O)CC(NC(N)=O)c3cccc(Oc4ccccc4)c3)CC2)cc1 (stereo unspecified),"3.98 µM [rising, partial curve]"
8,COc1ccc(Cn2c(C)nc3c(c2=O)c2nc4ccccc4nc2n3Cc2ccco2)cc1,"12.6 µM [rising, partial curve]"
9,CCOC(=O)CSc1nc2c(sc(=S)n2Cc2ccco2)c(=O)n1-c1ccccc1,"10 µM [rising, partial curve]"
10,CCOC(=O)c1[nH]cnc1C(=O)NC1CCCCC1,"3.98 µM [rising, partial curve]"
11,CCOC(=O)c1oc2cccc(O)c2c1CN1CCOCC1,"25.1 µM [rising, single point]"
12,CCc1c(-c2ccccc2)nc2nc(C)c(C)nn12,"12.6 µM [rising, partial curve]"
13,O=C(Nc1nnc(COc2ccccc2)s1)c1ccco1,"20 µM [rising, single point]"
14,O=C(Nn1c(-c2ccccc2)nc2ccccc2c1=O)c1ccco1,"3.98 µM [falling, full curve]"
15,COc1ccccc1N1CCN(c2nc3ccccc3nc2C(C#N)C(=O)OC(C)C)CC1 (stereo unspecified),"2 µM [rising, partial curve]"
16,COc1ccc(Br)cc1C1CC(=O)N2CN(Cc3ccccc3)CSC2=C1C#N (stereo unspecified),"3.98 µM [rising, single point]"
17,O=C(NC1CCCC1)C1CCN(S(=O)(=O)c2cccc3cccnc23)CC1,"20 µM [falling, partial curve, poor fit]"
18,CCN(CC)C(=O)c1cc2c(=O)n3cccc(C)c3nc2n1C,"12.6 µM [rising, partial curve, poor fit]"
19,Cc1sc2ncnc(Sc3nnnn3-c3ccccc3)c2c1C,"20 µM [falling, partial curve]"
20,Cc1csc(NC(=O)c2cccc(S(=O)(=O)N3CCCCC3)c2)n1,"12.6 µM [rising, single point]"
21,CCCc1[nH]nc2c1C(c1cn[nH]c1-c1ccc(F)cc1)C(C#N)=C(N)O2 (stereo unspecified),"7.94 µM [falling, partial curve, poor fit]"
22,C1=Nc2c(NCc3ccccc3)ncnc2Oc2ccccc21,"20 µM [rising, single point]"
